Data as given in PubChem BioAssay AID652259 (Drosophila RNAi Screening Center, 2013).

Aim: 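Identify new Wingless signalling regulators in fly cells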 (primary screen)
Cell system: Drosophila clone 8 imaginal disc epithelial cells
Reagent: long dsRNA against Drosophila genes
Challenge: pathway stimulated by co-transfected Wingless expression plasmid
Measured: 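Firefly luciferase from a tcf-site Wingless reporter, measured alongside co-transfected Renilla luciferase that tracks transfection; pathway stimulated by a Wingless plasmid; the firefly-to-Renilla ratio is not deposited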
Scale: firefly reporter light: higher = more Wg reporter light, before normalisation; Renilla control light: higher = more transfected or surviving cells
Rule for the call: 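Strong candidates differ from their plate mean by at least two out of four per-plate statistical tests; weak candidates meet just one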
Calls: active = candidate regulator (raises or lowers reporter); inactive = not a candidate
In all, the deposit lists about 22,000 reagents; this is an unselected part of those with a known target gene and a result. In the full data, 233 (1.1%) are marked active. 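Light values are raw, unnormalised plate reads; the ratio scores behind the reporter calls were not deposited.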 A plus sign joins genes that one reagent is predicted to hit. Not given: the amount of reagent, the time to read-out, the dose of the treatment.

| firefly reporter light, replicate 1 | firefly reporter light, replicate 2 | Renilla control light, replicate 1 | Renilla control light, replicate 2 | Outcome | target gene | DRSC id |
| --- | --- | --- | --- | --- | --- | --- |
| 15299 | – | 8996 | – | inactive | CG30338 | DRSC05166 |
| 2204 | 8491 | 1608 | 4033 | inactive | Nmt | DRSC11236 |
| 17895 | – | 6528 | – | inactive | Incenp | DRSC06116 |
| 4.71e5 | 5.09e5 | 1.70e5 | 1.81e5 | inactive | Incenp | DRSC21950 |
| 4.09e5 | 3.99e5 | 1.95e5 | 1.91e5 | inactive | Gr59a | DRSC21550 |
| 13936 | – | 8880 | – | inactive | Atg7 | DRSC05741 |
| 7577 | – | 2320 | – | inactive | Atg7 | DRSC06937 |
| 5925 | – | 2652 | – | inactive | Als2 | DRSC11806 |
| 3632 | 13257 | 2080 | 3415 | inactive | CG10063 | DRSC09688 |
| 2918 | 3707 | 1221 | 1003 | inactive | l(3)mbt | DRSC16983 |
| 10624 | – | 2909 | – | inactive | otk | DRSC07658 |
| 4.63e5 | 4.93e5 | 1.85e5 | 1.47e5 | inactive | Coq9 | DRSC22913 |
| 2434 | 4226 | 583 | 1655 | inactive | Lnk | DRSC16729 |
| 4978 | – | 2032 | – | inactive | w | DRSC17233 |
| 19923 | – | 12477 | – | inactive | w | DRSC18850 |
| 16485 | – | 8731 | – | inactive | ATP6 (retired record) | DRSC21278 |
| 4048 | – | 1552 | – | inactive | CG33252 | DRSC19162 |
| 25319 | – | 7590 | – | inactive | glo | DRSC16145 |
| 2050 | 5203 | 812 | 1953 | inactive | CG17242 | DRSC00493 |
| 2108 | 7313 | 631 | 2105 | inactive | CG9150 | DRSC03148 |
| 1632 | 4572 | 1241 | 2107 | inactive | PVRAP | DRSC09966 |
| 1590 | 5242 | 1456 | 3348 | inactive | PVRAP | DRSC10577 |
| 4423 | – | 1693 | – | inactive | CG10474 | DRSC05993 |
| 4499 | – | 1740 | – | inactive | Acp62F | DRSC08136 |
| 3046 | 7244 | 1029 | 2792 | inactive | Mal-A2 | DRSC07460 |
| 14917 | – | 4938 | – | inactive | CG31743 + CG34313 | DRSC02781 |
| 1675 | 5120 | 1104 | 3344 | inactive | CG31743 + CG34313 | DRSC02782 |
| 1914 | – | 983 | – | inactive | Mcm7 | DRSC11219 |
| 2027 | 7573 | 1335 | 2732 | inactive | mthl7 | DRSC10852 |
| 2042 | 6065 | 865 | 3380 | inactive | fok | DRSC02103 |
| 3243 | 8832 | 1209 | 2880 | inactive | Mfe2 | DRSC19869 |
| 5.42e5 | 4.72e5 | 2.21e5 | 2.26e5 | inactive | CG31626 + CG8677 | DRSC21844 |
| 8400 | – | 3152 | – | inactive | san | DRSC07695 |
| 2294 | 5024 | 674 | 2901 | inactive | spz4 | DRSC02410 |
| 2537 | – | 780 | – | inactive | superdeath | DRSC14868 |
| 2437 | 5040 | 897 | 2067 | inactive | Tmem63 | DRSC06063 |
| 2896 | 6778 | 827 | 1752 | inactive | Cpr60D | DRSC04492 |
| 10496 | – | 2587 | – | inactive | Vmat | DRSC06961 |
| 7173 | – | 3160 | – | inactive | Vmat | DRSC06962 |
| 3.17e5 | 3.92e5 | 1.73e5 | 1.89e5 | inactive | Vmat | DRSC22223 |
| 22866 | – | 6631 | – | inactive | CG14564 | DRSC11725 |
| 8.79e5 | 8.48e5 | 4.11e5 | 5.36e5 | inactive | CG14564 | DRSC22388 |
| 4592 | – | 1977 | – | inactive | BigH1 | DRSC15491 |
| 5986 | – | 1840 | – | inactive | corn | DRSC11021 |
| 5.34e5 | 5.40e5 | 1.68e5 | 1.85e5 | inactive | corn | DRSC21943 |
| 7171 | – | 2147 | – | inactive | CG9951 | DRSC11105 |
| 5841 | – | 2694 | – | inactive | CG13171 | DRSC06299 |
| 3185 | 10128 | 1285 | 4640 | inactive | trpl | DRSC06728 |
| 4950 | 9723 | 1639 | 5786 | inactive | trpl | DRSC06729 |

Copied from the list.
Under “Outcome”, CG31743 + CG34313 [DRSC02782] shows inactive
For “Outcome”, Atg7 [DRSC05741] has inactive
Result of san [DRSC07695] in “Renilla control light, replicate 1”: 3152
CG14564 [DRSC22388], firefly reporter light, replicate 1 = 8.79e5
